Data as given in paper PMC5057313.
Results are given in words; binding and its absence hold for the method and conditions named. For part of these data: Binding can be weak; no strength is given. For part of these data: Binding seen in cells or lysates may run through a third protein. For part of these data: Tags and fused reporters may be left off the sequences shown.

Assays:
[1] = target: MjTTL5 (transthyretin-like protein 5 of Meloidogyne javanica), bait in pGBKT7 (Meloidogyne javanica); experiment: two-hybrid; α-galactosidase (x-α-gal) quantitative assay of yeast cotransformants; five independent colonies
[2] = target: MjTTL5 truncated derivative Del7 (amino acids 63-110) (Meloidogyne javanica); experiment: as above
[3] = target: CeTTL (transthyretin-like protein of Caenorhabditis elegans), bait in pGBK (Caenorhabditis elegans); experiment: two-hybrid; bait (pGBKT7) and prey (pGADT7) cotransformed into S. cerevisiae AH109; growth and blue colour on SD/-leu-trp-his-ade + x-α-gal agar medium
[4] = target: MeTTL5 (TTL5 of Meloidogyne enterolobii), bait in pGBK (Meloidogyne enterolobii); experiment: as above
[5] = target: MiTTL5 (TTL5 of Meloidogyne incognita), bait in pGBK (Meloidogyne incognita); experiment: as above
[6] = target: MjTTL1 (Meloidogyne javanica), bait in pGBK (Meloidogyne javanica); experiment: as above
[7] = target: MjTTL2 (Meloidogyne javanica), bait in pGBK (Meloidogyne javanica); experiment: as above
[8] = target: MjTTL3 (Meloidogyne javanica), bait in pGBK (Meloidogyne javanica); experiment: as above
[9] = target: MjTTL4 (Meloidogyne javanica), bait in pGBK (Meloidogyne javanica); experiment: as above
[10] = target: MjTTL5 (transthyretin-like protein 5 of Meloidogyne javanica), bait in pGBKT7 (Meloidogyne javanica); experiment: as above
[11] = target: RsTTL1 (Radopholus similis), bait in pGBK (Radopholus similis); experiment: as above
[12] = target: RsTTL2 (Radopholus similis), bait in pGBK (Radopholus similis); experiment: as above
[13] = target: RsTTL3 (Radopholus similis), bait in pGBK (Radopholus similis); experiment: as above
[14] = target: RsTTL4 (Radopholus similis), bait in pGBK (Radopholus similis); experiment: as above
[15] = target: RsTTL5 (TTL5 of Radopholus similis), bait in pGBK (Radopholus similis); experiment: as above
[16] = target: MjTTL5-cYFP-HA (pSPYCE-ttl5), expressed in tobacco leaves (Meloidogyne javanica); experiment: co-IP; MjTTL5-cYFP-HA or GFP-HA coexpressed with AtFTRc-nYFP-myc in agroinfiltrated tobacco leaves; proteins extracted at 48 h; precipitate probed with anti-myc antibody
NULG1a-cYFP-HA = experiment: split reporter
[17] = target: MjTTL5-cYFP-HA, expressed in tomato root protoplasts (Meloidogyne javanica); experiment: split reporter; BiFC with nYFP and cYFP fusions cotransformed into tomato root protoplasts expressing the plastid marker AtNTRc-mCherry; images 24 h after cotransformation

B1: Arabidopsis ferredoxin : thioredoxin reductase catalytic subunit (AtFTRc), prey in pGADT7 (protein, UniProt Q9SJ89 1-146)
chain: MNLQAVSCSFGFLSSPLGVTPRTSFRRFVIRAKTEPSEKSVEIMRKFSEQYARRSGTYFCVDKGVTSVVIKGLAEHKDSYGAPLCPCRHYDDKAAEVGQGFWNCPCVPMRERKECHCMLFLTPDNDFAGKDQTITSDEIKETTANM
binding [1]: binds
binding [2]: binds
binding [3]: no binding
binding [4]: binds
binding [5]: binds
binding [6]: no binding
binding [7]: no binding
binding [8]: no binding
binding [9]: no binding
binding [10]: binds
binding [11]: no binding
binding [12]: no binding
binding [13]: no binding
binding [14]: no binding
binding [15]: binds

B2: AtFTRc-nYFP-Myc (in pSPYNE), expressed in tobacco leaves (protein, UniProt Q9SJ89 32-146)
chain: AKTEPSEKSVEIMRKFSEQYARRSGTYFCVDKGVTSVVIKGLAEHKDSYGAPLCPCRHYDDKAAEVGQGFWNCPCVPMRERKECHCMLFLTPDNDFAGKDQTITSDEIKETTANM
binding [16]: binds

B3: AtFTRc-nYFP-Myc, expressed in tomato root protoplasts (protein, UniProt Q9SJ89 32-146)
chain: B2 chain
binding (NULG1a-cYFP-HA): no binding
binding [17]: binds
